Data reported in publication PMC10952133, “Phytocystatin 6 is a context‐dependent, tight‐binding inhibitor of Arabidopsis thaliana legumain isoform β” (The Plant Journal, 2023).
These are yes or no findings as the source states them, for the method shown.

Biological target: T1, human legumain, activated (hLEG) (human) (UniProt Q99538)
T1 sequence: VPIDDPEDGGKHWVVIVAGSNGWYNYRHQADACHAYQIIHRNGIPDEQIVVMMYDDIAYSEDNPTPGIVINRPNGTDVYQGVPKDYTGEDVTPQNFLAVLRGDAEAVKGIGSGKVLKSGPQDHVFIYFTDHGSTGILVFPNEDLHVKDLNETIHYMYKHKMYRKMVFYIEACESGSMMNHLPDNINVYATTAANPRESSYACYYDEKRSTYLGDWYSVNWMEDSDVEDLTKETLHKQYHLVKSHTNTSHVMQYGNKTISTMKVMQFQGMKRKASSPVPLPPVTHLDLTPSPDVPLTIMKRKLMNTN
Experiment: condition: inhibitor up to 15-fold the enzyme concentration (50 nM enzyme); enzyme inhibition kinetics (Ki, Morrison equation); turnover of 50 μM Z-Ala-Ala-Asn-AMC by 50 nM legumain, 25°C, 20 mM citric acid pH 5.5, 100 mM NaCl, 0.02% Tween 20, 2 mM DTT; inhibitor in 1:2 serial dilutions from 15-fold the enzyme concentration, quadruplicates; both purified

B1: N-terminal domain of AtCYT6 (AtCYT6-NTD, A35-D127) (domain or fragment, Arabidopsis thaliana, UniProt Q8H0X6-1 35-127, looked up)
chain: ALVGGVGDVPANQNSGEVESLARFAVDEHNKKENALLEFARVVKAKEQVVAGTLHHLTLEILEAGQKKLYEAKVWVKPWLNFKELQEFKPASD
notes: Arabidopsis thaliana cystatin 6, N-terminal cystatin domain, residues A35-D127; Cloned into pET-28; source: E. coli BL21(DE3), purified (Ni-NTA, SEC)
- binding: no binding
